The supplement of paper PMC6411743
± gives the standard deviation of the averaged measurements. This is a selection; strong and weak results do not stand in their true shares.

Protein sequences, listed by entry. Tags and fused reporters are not part of them. Lines headed by an entry give the natural chain unless they say otherwise; changes in a name come on top.
UniProt Q5XUX1: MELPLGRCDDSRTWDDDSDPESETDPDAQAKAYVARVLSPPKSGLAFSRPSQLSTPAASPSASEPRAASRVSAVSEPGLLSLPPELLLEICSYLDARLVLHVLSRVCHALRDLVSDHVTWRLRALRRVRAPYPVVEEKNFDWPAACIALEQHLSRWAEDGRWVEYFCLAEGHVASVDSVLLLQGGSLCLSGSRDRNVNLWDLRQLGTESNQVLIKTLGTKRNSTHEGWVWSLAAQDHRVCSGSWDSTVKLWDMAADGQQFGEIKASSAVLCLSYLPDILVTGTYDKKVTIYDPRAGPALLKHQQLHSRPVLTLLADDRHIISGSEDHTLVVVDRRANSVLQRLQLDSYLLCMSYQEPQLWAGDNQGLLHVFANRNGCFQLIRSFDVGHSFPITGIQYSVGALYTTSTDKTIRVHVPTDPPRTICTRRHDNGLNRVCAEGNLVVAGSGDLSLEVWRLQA
UniProt Q8NE71: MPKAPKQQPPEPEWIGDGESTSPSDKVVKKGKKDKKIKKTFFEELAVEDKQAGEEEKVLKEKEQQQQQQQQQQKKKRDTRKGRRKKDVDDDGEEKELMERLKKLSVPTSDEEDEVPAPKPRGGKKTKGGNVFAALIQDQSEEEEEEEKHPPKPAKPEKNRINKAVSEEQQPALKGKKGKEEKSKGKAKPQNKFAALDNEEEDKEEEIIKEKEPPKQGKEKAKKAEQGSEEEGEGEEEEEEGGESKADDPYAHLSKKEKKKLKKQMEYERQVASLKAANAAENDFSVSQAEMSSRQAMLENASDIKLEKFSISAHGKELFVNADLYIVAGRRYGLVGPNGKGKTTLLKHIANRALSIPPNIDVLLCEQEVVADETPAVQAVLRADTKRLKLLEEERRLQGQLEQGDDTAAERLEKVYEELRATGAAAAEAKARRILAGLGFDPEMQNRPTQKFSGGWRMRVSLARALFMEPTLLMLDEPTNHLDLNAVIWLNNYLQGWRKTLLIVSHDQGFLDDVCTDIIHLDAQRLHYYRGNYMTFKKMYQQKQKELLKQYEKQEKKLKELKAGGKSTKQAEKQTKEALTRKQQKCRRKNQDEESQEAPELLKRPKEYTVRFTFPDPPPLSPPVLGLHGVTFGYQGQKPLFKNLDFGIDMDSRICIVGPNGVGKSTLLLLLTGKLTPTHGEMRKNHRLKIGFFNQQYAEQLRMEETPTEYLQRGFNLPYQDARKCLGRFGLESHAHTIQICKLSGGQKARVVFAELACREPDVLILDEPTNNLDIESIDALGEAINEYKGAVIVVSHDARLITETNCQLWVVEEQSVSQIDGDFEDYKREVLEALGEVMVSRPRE
UniProt Q96JJ3: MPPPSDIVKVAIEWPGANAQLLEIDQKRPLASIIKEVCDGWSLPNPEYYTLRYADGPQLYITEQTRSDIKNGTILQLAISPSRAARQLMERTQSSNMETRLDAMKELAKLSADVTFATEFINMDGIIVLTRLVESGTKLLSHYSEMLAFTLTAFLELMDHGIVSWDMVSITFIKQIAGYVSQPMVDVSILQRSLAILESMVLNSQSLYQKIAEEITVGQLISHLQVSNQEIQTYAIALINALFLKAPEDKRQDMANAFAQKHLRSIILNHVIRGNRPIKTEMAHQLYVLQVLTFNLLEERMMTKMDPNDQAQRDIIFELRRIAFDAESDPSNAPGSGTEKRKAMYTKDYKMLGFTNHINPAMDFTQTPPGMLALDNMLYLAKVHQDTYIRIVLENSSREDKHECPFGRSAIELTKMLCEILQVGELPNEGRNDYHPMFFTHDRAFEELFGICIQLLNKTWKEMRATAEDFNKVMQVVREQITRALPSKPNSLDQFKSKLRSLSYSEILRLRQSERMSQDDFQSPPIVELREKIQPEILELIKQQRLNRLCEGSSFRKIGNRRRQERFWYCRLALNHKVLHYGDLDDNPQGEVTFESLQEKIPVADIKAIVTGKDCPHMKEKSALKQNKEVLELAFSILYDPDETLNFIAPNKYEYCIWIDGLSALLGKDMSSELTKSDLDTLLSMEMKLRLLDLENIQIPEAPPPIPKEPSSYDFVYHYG
UniProt Q6NUQ4: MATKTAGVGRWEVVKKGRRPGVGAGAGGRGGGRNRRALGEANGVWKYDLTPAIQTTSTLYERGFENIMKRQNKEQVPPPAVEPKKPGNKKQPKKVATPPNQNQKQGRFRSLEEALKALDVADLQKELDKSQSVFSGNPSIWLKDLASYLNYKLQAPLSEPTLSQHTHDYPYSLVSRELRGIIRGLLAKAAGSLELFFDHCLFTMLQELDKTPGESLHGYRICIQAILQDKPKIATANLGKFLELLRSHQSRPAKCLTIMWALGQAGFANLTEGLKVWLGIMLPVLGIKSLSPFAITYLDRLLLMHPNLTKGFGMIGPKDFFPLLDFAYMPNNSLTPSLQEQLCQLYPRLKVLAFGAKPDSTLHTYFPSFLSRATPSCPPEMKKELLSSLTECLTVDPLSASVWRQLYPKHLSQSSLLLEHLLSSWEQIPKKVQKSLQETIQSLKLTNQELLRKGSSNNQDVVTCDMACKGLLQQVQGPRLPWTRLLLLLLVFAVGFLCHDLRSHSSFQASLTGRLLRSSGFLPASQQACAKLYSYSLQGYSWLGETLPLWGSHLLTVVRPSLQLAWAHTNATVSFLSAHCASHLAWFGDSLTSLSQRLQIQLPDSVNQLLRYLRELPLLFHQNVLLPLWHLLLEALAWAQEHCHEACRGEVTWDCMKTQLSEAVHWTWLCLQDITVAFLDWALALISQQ
UniProt Q6P179: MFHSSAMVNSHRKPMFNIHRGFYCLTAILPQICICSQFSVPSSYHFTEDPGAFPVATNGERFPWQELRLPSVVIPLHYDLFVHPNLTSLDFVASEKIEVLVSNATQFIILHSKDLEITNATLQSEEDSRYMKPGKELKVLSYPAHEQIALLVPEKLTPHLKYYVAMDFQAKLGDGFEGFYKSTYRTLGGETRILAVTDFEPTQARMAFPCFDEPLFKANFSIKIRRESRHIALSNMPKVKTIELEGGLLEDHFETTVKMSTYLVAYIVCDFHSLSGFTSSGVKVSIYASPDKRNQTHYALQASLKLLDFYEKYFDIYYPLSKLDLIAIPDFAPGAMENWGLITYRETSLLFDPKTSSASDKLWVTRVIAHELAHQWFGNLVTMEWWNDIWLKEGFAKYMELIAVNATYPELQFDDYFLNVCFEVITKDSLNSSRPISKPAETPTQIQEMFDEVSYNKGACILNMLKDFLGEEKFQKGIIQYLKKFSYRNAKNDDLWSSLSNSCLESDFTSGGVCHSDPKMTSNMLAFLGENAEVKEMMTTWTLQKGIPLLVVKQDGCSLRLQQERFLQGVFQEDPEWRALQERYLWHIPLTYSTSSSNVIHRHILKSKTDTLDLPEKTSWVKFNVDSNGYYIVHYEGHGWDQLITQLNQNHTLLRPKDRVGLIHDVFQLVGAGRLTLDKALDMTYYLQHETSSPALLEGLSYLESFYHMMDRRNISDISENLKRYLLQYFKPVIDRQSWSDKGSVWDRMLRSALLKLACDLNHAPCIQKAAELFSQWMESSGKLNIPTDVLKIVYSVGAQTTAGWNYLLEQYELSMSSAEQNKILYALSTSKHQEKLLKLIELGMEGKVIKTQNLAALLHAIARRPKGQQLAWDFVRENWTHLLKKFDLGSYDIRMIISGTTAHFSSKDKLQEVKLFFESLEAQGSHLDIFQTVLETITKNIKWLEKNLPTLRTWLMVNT
UniProt Q7L523, whole entry, looked up: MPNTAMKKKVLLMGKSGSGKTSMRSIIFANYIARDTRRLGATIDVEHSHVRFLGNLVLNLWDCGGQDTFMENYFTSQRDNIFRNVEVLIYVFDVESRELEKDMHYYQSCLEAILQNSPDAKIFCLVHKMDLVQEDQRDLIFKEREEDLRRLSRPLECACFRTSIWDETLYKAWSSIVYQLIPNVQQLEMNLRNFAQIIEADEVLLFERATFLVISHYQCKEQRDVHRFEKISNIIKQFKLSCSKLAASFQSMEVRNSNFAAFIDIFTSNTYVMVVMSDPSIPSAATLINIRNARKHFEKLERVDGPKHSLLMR
UniProt Q53S33: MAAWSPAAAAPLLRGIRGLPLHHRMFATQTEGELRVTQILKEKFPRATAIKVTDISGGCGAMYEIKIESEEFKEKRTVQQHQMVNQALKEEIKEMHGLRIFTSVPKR
UniProt Q6P4Q7: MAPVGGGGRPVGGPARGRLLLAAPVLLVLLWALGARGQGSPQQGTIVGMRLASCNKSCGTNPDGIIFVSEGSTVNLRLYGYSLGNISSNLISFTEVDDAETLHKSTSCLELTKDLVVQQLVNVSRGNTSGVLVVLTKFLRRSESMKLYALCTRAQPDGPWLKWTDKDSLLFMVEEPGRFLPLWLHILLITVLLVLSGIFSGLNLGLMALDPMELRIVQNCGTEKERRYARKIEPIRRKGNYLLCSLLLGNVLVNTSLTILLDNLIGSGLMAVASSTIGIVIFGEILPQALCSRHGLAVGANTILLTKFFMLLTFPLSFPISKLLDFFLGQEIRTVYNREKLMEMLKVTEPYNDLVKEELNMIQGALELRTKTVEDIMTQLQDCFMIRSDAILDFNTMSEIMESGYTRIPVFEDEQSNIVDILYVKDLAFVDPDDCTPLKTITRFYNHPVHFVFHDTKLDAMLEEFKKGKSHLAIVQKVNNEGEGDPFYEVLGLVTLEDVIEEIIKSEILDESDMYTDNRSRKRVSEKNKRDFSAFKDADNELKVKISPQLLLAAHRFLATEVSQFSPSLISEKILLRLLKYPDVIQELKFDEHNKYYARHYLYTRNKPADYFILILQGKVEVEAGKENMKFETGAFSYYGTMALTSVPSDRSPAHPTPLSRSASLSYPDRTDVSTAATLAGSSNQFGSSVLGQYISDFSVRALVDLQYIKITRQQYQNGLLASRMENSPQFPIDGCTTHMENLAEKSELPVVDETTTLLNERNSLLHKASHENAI
UniProt Q5T0B9: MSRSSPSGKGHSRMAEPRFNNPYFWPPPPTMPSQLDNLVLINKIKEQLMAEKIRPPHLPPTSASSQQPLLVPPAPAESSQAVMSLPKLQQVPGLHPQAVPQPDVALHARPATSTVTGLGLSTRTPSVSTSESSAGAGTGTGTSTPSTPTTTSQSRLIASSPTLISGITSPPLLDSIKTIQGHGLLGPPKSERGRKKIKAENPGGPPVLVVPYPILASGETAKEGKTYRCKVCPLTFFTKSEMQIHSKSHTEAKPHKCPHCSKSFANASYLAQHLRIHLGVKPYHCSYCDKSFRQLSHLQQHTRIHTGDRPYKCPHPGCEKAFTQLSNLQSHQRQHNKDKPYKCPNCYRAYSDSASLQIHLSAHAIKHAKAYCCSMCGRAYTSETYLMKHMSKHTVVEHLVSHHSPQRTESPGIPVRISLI
UniProt Q68EM7: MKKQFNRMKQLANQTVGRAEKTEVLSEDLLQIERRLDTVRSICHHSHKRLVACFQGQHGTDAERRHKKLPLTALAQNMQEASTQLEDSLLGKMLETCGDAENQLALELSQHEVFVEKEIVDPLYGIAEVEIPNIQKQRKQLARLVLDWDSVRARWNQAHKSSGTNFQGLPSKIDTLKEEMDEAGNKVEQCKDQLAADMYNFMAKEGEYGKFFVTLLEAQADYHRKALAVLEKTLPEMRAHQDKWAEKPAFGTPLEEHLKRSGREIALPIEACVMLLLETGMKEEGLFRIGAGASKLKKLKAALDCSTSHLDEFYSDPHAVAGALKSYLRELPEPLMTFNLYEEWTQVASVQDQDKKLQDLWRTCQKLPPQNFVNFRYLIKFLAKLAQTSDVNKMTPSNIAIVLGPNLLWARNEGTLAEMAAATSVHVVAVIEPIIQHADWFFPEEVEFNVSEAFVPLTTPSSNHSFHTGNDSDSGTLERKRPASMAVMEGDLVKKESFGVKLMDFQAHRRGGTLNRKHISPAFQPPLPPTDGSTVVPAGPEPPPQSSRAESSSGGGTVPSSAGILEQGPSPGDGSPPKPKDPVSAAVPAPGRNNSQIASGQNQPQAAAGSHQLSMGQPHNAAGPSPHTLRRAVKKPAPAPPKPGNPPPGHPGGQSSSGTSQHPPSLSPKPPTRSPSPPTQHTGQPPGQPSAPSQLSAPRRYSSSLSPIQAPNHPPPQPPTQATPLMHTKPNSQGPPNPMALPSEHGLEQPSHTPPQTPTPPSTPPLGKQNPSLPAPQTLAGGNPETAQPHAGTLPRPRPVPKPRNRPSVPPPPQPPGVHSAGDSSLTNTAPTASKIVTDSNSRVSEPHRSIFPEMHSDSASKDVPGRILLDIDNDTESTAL
UniProt Q63HQ0: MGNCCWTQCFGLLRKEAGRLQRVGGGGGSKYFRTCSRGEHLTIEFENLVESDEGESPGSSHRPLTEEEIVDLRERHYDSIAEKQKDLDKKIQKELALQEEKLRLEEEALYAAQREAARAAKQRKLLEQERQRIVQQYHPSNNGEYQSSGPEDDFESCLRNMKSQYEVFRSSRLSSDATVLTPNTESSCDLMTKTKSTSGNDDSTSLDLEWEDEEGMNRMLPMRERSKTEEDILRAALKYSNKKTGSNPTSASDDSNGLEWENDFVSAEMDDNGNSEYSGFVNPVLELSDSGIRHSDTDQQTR

Compound: Nc1ncnc2c1ncn2[C@@H]1O[C@H](COP(=O)(O)OP(=O)(O)OP(=O)(O)O)[C@@H](O)[C@H]1O [adenosine triphosphate]
Test: NP40-soluble protein abundance relative to vehicle (solubility fold change) (ratio); higher = more soluble protein in presence of ATP
Method in brief: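 Jurkat crude lysate (Dounce-homogenised) was treated with eight concentrations from 0.1 to 10 mM for 10 min at room temperature, then 3 min at 37 °C. It was solubilised with 0.8% NP40 and benzonase (60 min, 4 °C) and ultracentrifuged, and the supernatant was TMT-labelled for LC-MS/MS. Intensities were vsn-normalised, and the value is the fold change against the NP40-processed vehicle per replicate, from three independent experiments.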

Target	NP40-soluble protein abundance (concentration: 1mM)	NP40-soluble protein abundance (concentration: 2mM)	NP40-soluble protein abundance (concentration: 4mM)	NP40-soluble protein abundance (concentration: 6mM)	NP40-soluble protein abundance (concentration: 8mM)	NP40-soluble protein abundance (concentration: 10mM)
EAPP (UniProt Q56P03)	1.02 ± 0.13	0.971 ± 0.11	1.04 ± 0.14	1.06 ± 0.13	1.06 ± 0.1	1.02 ± 0.1
MIA3 (UniProt Q5JRA6)	0.946 ± 0.041	0.9483 ± 0.0089	0.957 ± 0.029	1 ± 0.036	0.9454 ± 0.0083	0.941 ± 0.031
ANKRD54 (UniProt Q6NXT1)	0.946 ± 0.12	0.951 ± 0.067	0.976 ± 0.075	0.928 ± 0.073	0.914 ± 0.055	0.924 ± 0.071
RCSD1 (UniProt Q6JBY9)	0.809 ± 0.088	0.805 ± 0.037	0.783 ± 0.014	0.822 ± 0.079	0.7364 ± 0.0037	0.692 ± 0.063
UniProt Q5XUX1 and related entries	1.03 ± 0.11	1.1 ± 0.08	1.06 ± 0.037	0.937 ± 0.076	1.03 ± 0.032	1 ± 0.018
Q5VYH9 and related entries (UniProt Q9HBG7)	0.919 ± 0.033	0.958 ± 0.036	0.994 ± 0.028	0.9353 ± 0.0092	0.901 ± 0.054	0.915 ± 0.084
UniProt Q58EX7 and related entries	1.08 ± 0.022	1.03 ± 0.013	1.13 ± 0.12	0.989 ± 0.099	1.11 ± 0.1	1.02 ± 0.093
UniProt Q5JVF3 and related entries	1.04 ± 0.13	0.999 ± 0.098	1.01 ± 0.088	0.973 ± 0.14	1.07 ± 0.084	1.06 ± 0.09
Q5STZ8 and related entries (UniProt Q8NE71)	1.02 ± 0.015	1.02 ± 0.025	1.05 ± 0.037	1.07 ± 0.065	1.08 ± 0.054	1.09 ± 0.046
UniProt Q6P1N0 and related entries	0.984 ± 0.019	0.981 ± 0.023	0.978 ± 0.014	1.013 ± 0.0088	0.976 ± 0.021	0.9799 ± 0.0089
UniProt Q53EL6 and related entries	1.34 ± 0.13	1.41 ± 0.13	1.52 ± 0.19	1.66 ± 0.2	1.55 ± 0.14	1.55 ± 0.18
UniProt Q5JPF3	0.988 ± 0.066	1.01 ± 0.056	1.093 ± 0.01	0.989 ± 0.059	0.992 ± 0.084	1.04 ± 0.13
UniProt Q6JQN1 and related entries	0.979 ± 0.034	0.93 ± 0.099	0.977 ± 0.078	0.918 ± 0.047	0.947 ± 0.061	0.975 ± 0.056
UniProt Q5JS37 and related entries	1.07 ± 0.062	1.08 ± 0.065	1.08 ± 0.045	1.06 ± 0.014	1.09 ± 0.1	1.1 ± 0.14
SIGIRR (UniProt Q6IA17)	0.972 ± 0.099	1.06 ± 0.089	0.98 ± 0.022	0.9643 ± 0.0095	0.946 ± 0.032	0.949 ± 0.025
Q5JVZ5 and related entries (UniProt Q96JJ3)	1.07 ± 0.055	1.04 ± 0.047	1.02 ± 0.061	1.01 ± 0.057	1.03 ± 0.053	0.999 ± 0.04
UniProt Q6NTF9 and related entries	0.884 ± 0.082	0.892 ± 0.042	0.91 ± 0.04	0.846 ± 0.046	0.915 ± 0.019	1.02 ± 0.08
RSBN1L (UniProt Q6PCB5)	1.29 ± 0.022	1.36 ± 0.022	1.4 ± 0.025	1.45 ± 0.075	1.46 ± 0.075	1.5 ± 0.12
UniProt Q5H8A4-5|Q5H8A4-6	0.952 ± 0.022	0.988 ± 0.012	0.943 ± 0.066	0.9801 ± 0.00087	0.946 ± 0.056	0.954 ± 0.021
UniProt Q5BJH7 and related entries	0.98 ± 0.091	0.99 ± 0.09	0.946 ± 0.028	0.9432 ± 0.0024	0.945 ± 0.089	0.916 ± 0.013

Whole records as entered above. Order of values: NP40-soluble protein abundance (concentration: 1mM)	NP40-soluble protein abundance (concentration: 2mM)	NP40-soluble protein abundance (concentration: 4mM)	NP40-soluble protein abundance (concentration: 6mM)	NP40-soluble protein abundance (concentration: 8mM)	NP40-soluble protein abundance (concentration: 10mM)
UniProt Q53EL6 and related entries as listed: 1.34 ± 0.13	1.41 ± 0.13	1.52 ± 0.19	1.66 ± 0.2	1.55 ± 0.14	1.55 ± 0.18
UniProt Q5H8A4-5|Q5H8A4-6 as listed: 0.952 ± 0.022	0.988 ± 0.012	0.943 ± 0.066	0.9801 ± 0.00087	0.946 ± 0.056	0.954 ± 0.021

The list continues:

Target	NP40-soluble protein abundance (concentration: 1mM)	NP40-soluble protein abundance (concentration: 2mM)	NP40-soluble protein abundance (concentration: 4mM)	NP40-soluble protein abundance (concentration: 6mM)	NP40-soluble protein abundance (concentration: 8mM)	NP40-soluble protein abundance (concentration: 10mM)
TAPT1 (UniProt Q6NXT6)	0.996 ± 0.064	1.03 ± 0.054	0.983 ± 0.06	0.957 ± 0.085	0.998 ± 0.04	0.971 ± 0.063
CRTC2 (UniProt Q53ET0)	1.04 ± 0.043	1.03 ± 0.071	1.02 ± 0.029	1.02 ± 0.036	0.971 ± 0.063	0.976 ± 0.032
UniProt Q6NUQ4 and related entries	0.987 ± 0.033	1 ± 0.019	1.006 ± 0.0067	1.07 ± 0.018	1.04 ± 0.016	1.05 ± 0.025
TAF3 (UniProt Q5VWG9)	1.02 ± 0.082	1.03 ± 0.05	1.05 ± 0.087	1.05 ± 0.042	1.06 ± 0.1	1.1 ± 0.066
UniProt Q5VZL5 and related entries	1.12 ± 0.013	1.17 ± 0.019	1.22 ± 0.022	1.27 ± 0.058	1.39 ± 0.051	1.47 ± 0.054
UniProt Q6P1X6 and related entries	0.947 ± 0.015	1.03 ± 0.037	0.987 ± 0.011	0.886 ± 0.066	0.989 ± 0.024	1 ± 0.043
UniProt Q4V328 and related entries	0.97 ± 0.043	0.9602 ± 0.0086	0.958 ± 0.0086	0.979 ± 0.014	0.927 ± 0.02	0.921 ± 0.025
ERAP2 (UniProt Q6P179)	0.911 ± 0.029	0.955 ± 0.033	0.932 ± 0.028	0.894 ± 0.046	0.88 ± 0.034	0.934 ± 0.029
DHX57 (UniProt Q6P158)	1.03 ± 0.022	1.05 ± 0.03	1.12 ± 0.033	1.14 ± 0.026	1.15 ± 0.059	1.08 ± 0.039
UniProt Q6GQQ9 and related entries	1.08 ± 0.041	1.08 ± 0.056	1.01 ± 0.072	1.08 ± 0.055	1.03 ± 0.099	0.934 ± 0.076
Q5VZM2-2|Q7L523 (UniProt Q7L523+Q5VZM2)	1.11 ± 0.18	1.07 ± 0.14	1.13 ± 0.17	1.06 ± 0.13	1.15 ± 0.13	1.05 ± 0.12
FAM160B1 (UniProt Q5W0V3)	0.964 ± 0.081	1.01 ± 0.06	0.967 ± 0.018	0.946 ± 0.061	0.985 ± 0.025	0.974 ± 0.013
BOLA3 (UniProt Q53S33)	1.11 ± 0.24	0.93 ± 0.077	1 ± 0.14	1.04 ± 0.12	0.93 ± 0.035	0.841 ± 0.061
CNNM4 (UniProt Q6P4Q7)	1.01 ± 0.11	1.01 ± 0.074	1.01 ± 0.071	1.04 ± 0.099	1 ± 0.048	1 ± 0.013
Q5T3Q7 and related entries (UniProt Q9H583)	1.08 ± 0.14	1.13 ± 0.11	1.24 ± 0.14	1.16 ± 0.11	1.3 ± 0.11	1.4 ± 0.1
ALKBH5 (UniProt Q6P6C2)	1.23 ± 0.059	1.29 ± 0.072	1.31 ± 0.091	1.26 ± 0.17	1.37 ± 0.085	1.42 ± 0.087
C9orf64 (UniProt Q5T6V5)	0.914 ± 0.05	0.96 ± 0.051	0.983 ± 0.075	0.927 ± 0.11	1.01 ± 0.054	1.01 ± 0.067
ADNP2 (UniProt Q6IQ32)	1.1 ± 0.025	1.06 ± 0.17	1.18 ± 0.073	1.15 ± 0.14	1.28 ± 0.014	1.24 ± 0.026
Q5LJA5 and related entries (UniProt Q9Y5K5)	0.971 ± 0.04	0.977 ± 0.033	0.976 ± 0.033	1 ± 0.043	0.948 ± 0.041	0.948 ± 0.029
UniProt Q5VYS8 and related entries	1.07 ± 0.037	1.07 ± 0.019	1.07 ± 0.03	1.1 ± 0.063	1.09 ± 0.045	1.1 ± 0.064

Target	NP40-soluble protein abundance (concentration: 1mM)	NP40-soluble protein abundance (concentration: 2mM)	NP40-soluble protein abundance (concentration: 4mM)	NP40-soluble protein abundance (concentration: 6mM)	NP40-soluble protein abundance (concentration: 8mM)	NP40-soluble protein abundance (concentration: 10mM)
C19orf54 (UniProt Q5BKX5)	0.994 ± 0.031	1 ± 0.058	0.991 ± 0.032	0.969 ± 0.12	0.959 ± 0.092	0.975 ± 0.071
REEP3 (UniProt Q6NUK4)	1.1 ± 0.067	1.14 ± 0.08	1.12 ± 0.051	1.11 ± 0.018	1.11 ± 0.058	1.15 ± 0.018
Q5TBP9 and related entries (UniProt Q9BX40)	1.05 ± 0.06	1.06 ± 0.059	1.07 ± 0.044	1.16 ± 0.056	1.15 ± 0.034	1.18 ± 0.028
UniProt Q5T0B9	0.95 ± 0.11	0.985 ± 0.059	1.01 ± 0.051	0.985 ± 0.19	0.93 ± 0.044	0.929 ± 0.072
UniProt Q5R372 and related entries	1.01 ± 0.017	0.979 ± 0.015	1 ± 0.015	1.007 ± 0.0016	0.986 ± 0.019	0.982 ± 0.013
ARHGAP17 (UniProt Q68EM7)	0.986 ± 0.015	0.9922 ± 0.0051	0.978 ± 0.023	0.993 ± 0.015	0.985 ± 0.041	0.971 ± 0.025
UniProt Q5T440	0.973 ± 0.094	0.986 ± 0.067	1 ± 0.027	0.903 ± 0.085	0.973 ± 0.032	0.99 ± 0.054
UniProt Q6P587 and related entries	0.987 ± 0.068	1.02 ± 0.032	0.984 ± 0.081	1.01 ± 0.044	0.97 ± 0.04	1.04 ± 0.034
CTR9 (UniProt Q6PD62)	0.964 ± 0.058	0.947 ± 0.047	0.892 ± 0.019	0.846 ± 0.043	0.813 ± 0.034	0.708 ± 0.018
RARS2 (UniProt Q5T160)	1.02 ± 0.12	1 ± 0.069	0.995 ± 0.035	0.898 ± 0.087	1.02 ± 0.046	0.985 ± 0.011
CPTP (UniProt Q5TA50)	0.962 ± 0.07	0.984 ± 0.075	0.981 ± 0.04	0.913 ± 0.088	0.9748 ± 0.0052	0.9193 ± 0.0056
UniProt Q6P1X5 and related entries	1.07 ± 0.071	1.08 ± 0.08	1.19 ± 0.03	1.06 ± 0.037	1.2 ± 0.076	1.186 ± 0.011
RFWD3 (UniProt Q6PCD5)	1 ± 0.04	0.999 ± 0.06	1.04 ± 0.059	1 ± 0.061	1.07 ± 0.018	1.05 ± 0.043
GLT8D1 (UniProt Q68CQ7)	0.948 ± 0.012	0.987 ± 0.033	0.967 ± 0.042	0.966 ± 0.079	0.92 ± 0.029	0.973 ± 0.034
HSD17B12 (UniProt Q53GQ0)	0.999 ± 0.11	0.94 ± 0.049	0.915 ± 0.016	0.886 ± 0.096	0.965 ± 0.021	0.954 ± 0.043
ANKRD39 (UniProt Q53RE8)	0.995 ± 0.047	0.9965 ± 0.007	1.02 ± 0.021	0.938 ± 0.038	0.97 ± 0.11	1 ± 0.024
UniProt Q53HC9 and related entries	0.978 ± 0.071	0.984 ± 0.064	0.962 ± 0.064	0.913 ± 0.05	0.975 ± 0.051	0.946 ± 0.054
ZNF326 (UniProt Q5BKZ1)	1.18 ± 0.089	1.17 ± 0.08	1.21 ± 0.12	1.29 ± 0.17	1.3 ± 0.1	1.35 ± 0.13
UniProt Q6NYC1 and related entries	1.023 ± 0.0072	1.03 ± 0.037	0.993 ± 0.043	1.01 ± 0.024	1.01 ± 0.027	1.01 ± 0.013
UniProt Q63HQ0	0.927 ± 0.066	0.926 ± 0.037	0.898 ± 0.053	0.937 ± 0.044	0.863 ± 0.064	0.861 ± 0.036
